Measured values taken from patent US20240373847A1, “HERBICIDAL MALONAMIDES” (BASF SE, priority 2021, published 2024).
Some results were stated once for a whole list of compounds, not compound by compound. At least one compound was matched to its structure with a doubt left.

Columns and labels:
Type in all cases: in vivo
Avena fatua (AVEFA) = assay: greenhouse test, post-emergence treatment; conditions: post-emergence method, scale from 0 to 100
[1] = tested on: Alopercurus myosuroides (ALOMY); assay: greenhouse test, post-emergence treatment; conditions: post-emergence method, scale from 0 to 100
Setaria faberi (SETFA) = assay: greenhouse test, pre-emergence treatment; conditions: 0.250 kg/ha, pre-emergence method; scale from 0 to 100
Source text: (§1) The culture containers used were plastic flowerpots containing loamy sand with approximately 3.0% of humus as the substrate. The seeds of the test plants were sown separately for each species.
(§2) For the pre-emergence treatment, the active ingredients, which had been suspended or emulsified in water, were applied directly after sowing by means of finely distributing nozzles. The containers were irrigated gently to promote germination and growth and subsequently covered with transparent plastic hoods until the test plants had rooted.
(§3) This cover caused uniform germination of the test plants, unless this had been impaired by the active ingredients.
(§4) Depending on the species, the test plants were kept at 10-25° C. or 20-35° C., respectively.
(§5) The test period extended over 2 to 4 weeks. During this time, the test plants were tended, and their response to the individual treatments was evaluated.
(§6) Evaluation was carried out using a scale from 0 to 100. 100 means no emergence of the test plants, or complete destruction of at least the aerial moieties, and 0 means no damage, or normal course of growth. A good herbicidal activity is given at values of 70 to <90 and a very good herbicidal activity is given at values of 90 to 100.
(§7) The test plants used in the greenhouse experiments were of the following species: […]

[2] = tested on: Amaranthus retroflexus (AMARE); assay: greenhouse test, pre-emergence treatment; conditions: 0.250 kg/ha, pre-emergence method; scale from 0 to 100
Source text: as §1, §2, §3, §4, §5, §6, §7

Setaria viridis (SETVI) = assay: greenhouse test, post-emergence treatment; conditions: 0.250 kg/ha, post-emergence method; scale from 0 to 100
Source text: as §1
(§8) For the post-emergence treatment, the test plants were first grown to a height of 3 to 15 cm, depending on the plant habit, and only then treated with the active ingredients which had been suspended or emulsified in water. For this purpose, the test plants were either sown directly and grown in the same containers, or they were first grown separately as seedlings and transplanted into the test containers a few days prior to treatment.
as §4, §5, §6, §7

[3] = tested on: Apera spica-venti (APESV); assay: greenhouse test, pre-emergence treatment; conditions: 0.250 kg/ha, pre-emergence method; scale from 0 to 100
Source text: as §1, §2, §3, §4, §5, §6, §7

[4] = tested on: Amaranthus retroflexus (AMARE); assay: greenhouse test, post-emergence treatment; conditions: post-emergence method, scale from 0 to 100
Source text: as §1, §8, §4, §5, §6, §7

[5] = tested on: Abutilon theophrasti (ABUTH); assay: greenhouse test, post-emergence treatment; conditions: 0.250 kg/ha, post-emergence method; scale from 0 to 100
[6] = tested on: Echinocloa crus-galli (ECHCG); assay: greenhouse test, post-emergence treatment; conditions: post-emergence method, scale from 0 to 100
Source text: as §1, §8, §4, §5, §6, §7

[7] = tested on: Digitaria sanguinalis (DIGSA); assay: greenhouse test, pre-emergence treatment; conditions: 1.000 kg/ha, pre-emergence method; scale from 0 to 100
Source text: as §1, §2, §3, §4, §5, §6, §7

[8] = tested on: Lolium multiflorum (LOLMU); assay: greenhouse test, pre-emergence treatment; conditions: pre-emergence method, scale from 0 to 100
Source text: as §1, §2, §3, §4, §5, §6, §7

Row | Compound | herbicidal activity against AVEFA (Avena fatua (AVEFA); 0.250 kg/ha) | herbicidal activity against ALOMY ([1]; 0.250 kg/ha) | herbicidal activity against SETFA (Setaria faberi (SETFA)) | herbicidal activity against SETVI (Setaria viridis (SETVI)) | herbicidal activity against APESV [3] | herbicidal activity against AMARE ([4]; 0.250 kg/ha) | herbicidal activity against ABUTH [5] | further results
1 | COC(=O)CC(C)NC(=O)C(C)C(=O)Nc1cc(C)cc(F)c1 (centres unmarked) [I.16] | good herbicidal activity (A good herbicidal activity is given at values of 70 to <90) | good herbicidal activity (A good herbicidal activity is given at values of 70 to <90) | good herbicidal activity (A good herbicidal activity is given at values of 70 to <90) | – | – | – | – | herbicidal activity against AMARE [2]: very good herbicidal activity (a very good herbicidal activity is given at values of 90 to 100)
2 | COC(=O)CCC(C)NC(=O)C(C)C(=O)Nc1cccc(F)c1 (centres unmarked) [I.80] | very good herbicidal activity (a very good herbicidal activity is given at values of 90 to 100) | good herbicidal activity (A good herbicidal activity is given at values of 70 to <90) | – | very good herbicidal activity (a very good herbicidal activity is given at values of 90 to 100) | good herbicidal activity (A good herbicidal activity is given at values of 70 to <90) | – | – | –
3 | COC(=O)CCC(C)NC(=O)C(C)C(=O)Nc1cccc(Cl)c1 (centres unmarked) [I.82] | very good herbicidal activity (a very good herbicidal activity is given at values of 90 to 100) | very good herbicidal activity (a very good herbicidal activity is given at values of 90 to 100) | – | – | good herbicidal activity (A good herbicidal activity is given at values of 70 to <90) | very good herbicidal activity (a very good herbicidal activity is given at values of 90 to 100) | very good herbicidal activity (a very good herbicidal activity is given at values of 90 to 100) | –
4 | CCC(C(=O)Nc1cc(Cl)cc(Cl)c1)C(=O)NC(C)CCC(=O)OC (centres unmarked) [I.91] | – | – | – | – | – | – | – | herbicidal activity against ECHCG ([6]; 0.125 kg/ha): good herbicidal activity (A good herbicidal activity is given at values of 70 to <90)
5 | CCC(C(=O)Nc1cccc(Cl)c1)C(=O)NC(C)CC(=O)OC (centres unmarked) [I.92] | – | – | – | good herbicidal activity (A good herbicidal activity is given at values of 70 to <90) | good herbicidal activity (A good herbicidal activity is given at values of 70 to <90) | – | good herbicidal activity (A good herbicidal activity is given at values of 70 to <90) | –
6 | CCC(C(=O)Nc1cc(F)cc(Cl)c1)C(=O)NC(C)CC(=O)OC (centres unmarked) [I.101] | good herbicidal activity (A good herbicidal activity is given at values of 70 to <90) | – | – | good herbicidal activity (A good herbicidal activity is given at values of 70 to <90) | – | – | – | –
7 | CCC(C(=O)Nc1cc(F)cc(Cl)c1)C(=O)NC(C)CCC(=O)OC (centres unmarked) [I.103] | – | – | very good herbicidal activity (a very good herbicidal activity is given at values of 90 to 100) | – | – | – | – | –
8 | CCC(C(=O)Nc1cccc(OC(F)(F)F)c1)C(=O)NC(C)CC(=O)OC (centres unmarked) [I.107] | – | good herbicidal activity (A good herbicidal activity is given at values of 70 to <90) | – | good herbicidal activity (A good herbicidal activity is given at values of 70 to <90) | good herbicidal activity (A good herbicidal activity is given at values of 70 to <90) | – | good herbicidal activity (A good herbicidal activity is given at values of 70 to <90) | –
9 | CCC(C(=O)Nc1cccc(I)c1)C(=O)NC(C)CCC(=O)OC (centres unmarked) [I.118] | very good herbicidal activity (a very good herbicidal activity is given at values of 90 to 100) | – | – | – | very good herbicidal activity (a very good herbicidal activity is given at values of 90 to 100) | very good herbicidal activity (a very good herbicidal activity is given at values of 90 to 100) | very good herbicidal activity (a very good herbicidal activity is given at values of 90 to 100) | –
10 | CCC(C(=O)Nc1cccc(Cl)c1)C(=O)NC(C)CCC(=O)OC (centres unmarked) [I.120] | good herbicidal activity (A good herbicidal activity is given at values of 70 to <90) | – | good herbicidal activity (A good herbicidal activity is given at values of 70 to <90) | good herbicidal activity (A good herbicidal activity is given at values of 70 to <90) | – | – | good herbicidal activity (A good herbicidal activity is given at values of 70 to <90) | –
11 | CCC(C(=O)Nc1cc(F)cc(F)c1)C(=O)NC(C)CCC(=O)OC (centres unmarked) [I.121] | – | – | good herbicidal activity (A good herbicidal activity is given at values of 70 to <90) | good herbicidal activity (A good herbicidal activity is given at values of 70 to <90) | – | good herbicidal activity (A good herbicidal activity is given at values of 70 to <90) | – | herbicidal activity against ECHCG ([6]; 0.250 kg/ha): good herbicidal activity (A good herbicidal activity is given at values of 70 to <90)
12 | CCC(C(=O)Nc1cc(F)cc(Cl)c1)C(=O)NC(C)CCC(=O)OC (centres unmarked) [I.123] | – | – | good herbicidal activity (A good herbicidal activity is given at values of 70 to <90) | good herbicidal activity (A good herbicidal activity is given at values of 70 to <90) | – | good herbicidal activity (A good herbicidal activity is given at values of 70 to <90) | good herbicidal activity (A good herbicidal activity is given at values of 70 to <90) | –
13 | CCC(C(=O)Nc1cc(F)cc(F)c1)C(=O)NC(C)CC(=O)O (centres unmarked) [I.144] | – | – | – | – | – | – | – | herbicidal activity against AVEFA (Avena fatua (AVEFA); 1.000 kg/ha): good herbicidal activity (A good herbicidal activity is given at values of 70 to <90); herbicidal activity against ALOMY ([1]; 1.000 kg/ha): good herbicidal activity (A good herbicidal activity is given at values of 70 to <90); herbicidal activity against DIGSA [7]: very good herbicidal activity (a very good herbicidal activity is given at values of 90 to 100); herbicidal activity against LOLMU ([8]; 1.000 kg/ha): very good herbicidal activity (a very good herbicidal activity is given at values of 90 to 100)
14 | CCC(C(=O)Nc1cccc(OC(F)(F)F)c1)C(=O)NC(C)CC(=O)O (centres unmarked) [I.146] | – | – | – | – | – | – | – | herbicidal activity against AVEFA (Avena fatua (AVEFA); 1.000 kg/ha): good herbicidal activity (A good herbicidal activity is given at values of 70 to <90); herbicidal activity against AMARE ([4]; 1.000 kg/ha): very good herbicidal activity (a very good herbicidal activity is given at values of 90 to 100); herbicidal activity against ALOMY ([1]; 1.000 kg/ha): good herbicidal activity (A good herbicidal activity is given at values of 70 to <90); herbicidal activity against DIGSA [7]: very good herbicidal activity (a very good herbicidal activity is given at values of 90 to 100); herbicidal activity against LOLMU ([8]; 1.000 kg/ha): very good herbicidal activity (a very good herbicidal activity is given at values of 90 to 100)
15 | COC(=O)CCC(C)NC(=O)C(C)C(=O)Nc1cc(F)cc(F)c1 (centres unmarked) [I.154] | very good herbicidal activity (a very good herbicidal activity is given at values of 90 to 100) | good herbicidal activity (A good herbicidal activity is given at values of 70 to <90) | – | – | – | good herbicidal activity (A good herbicidal activity is given at values of 70 to <90) | – | herbicidal activity against LOLMU ([8]; 0.250 kg/ha): very good herbicidal activity (a very good herbicidal activity is given at values of 90 to 100)
